Earlier results as cited in patent publication US9155814B2, “Nanostructured material formulated with bone cement for effective antibiotic delivery” (priority 2009, dated 2015).
In brackets after ≈: the same amount, converted by molar mass.

Conditions: in H2O at 20° C.; cited from earlier work

In the case of `COc1ccc2c(c1)c(CC(=O)O)c(C)n2C(=O)c1ccc(Cl)cc1` [indomethacin], the solubility is listed as 4 µg/mL (≈ 11.2 µM).
